Results reported in US7419984B2, “Pyrimidines and uses thereof” (Cell Therapeutics, Inc., priority 2002, dated 2008).

Molecular target: T1, human LPAAT-β (Homo sapiens, UniProt O15120)
T1 construct: the full-length human LPAAT-β cDNA was amplified by PCR; poly-histidine tag (N); made in house; host or cells: Sf9 insect cells (baculovirus, pFastBac HTc); the membrane fraction was used as the enzyme
T1 sequence (O15120 24-278): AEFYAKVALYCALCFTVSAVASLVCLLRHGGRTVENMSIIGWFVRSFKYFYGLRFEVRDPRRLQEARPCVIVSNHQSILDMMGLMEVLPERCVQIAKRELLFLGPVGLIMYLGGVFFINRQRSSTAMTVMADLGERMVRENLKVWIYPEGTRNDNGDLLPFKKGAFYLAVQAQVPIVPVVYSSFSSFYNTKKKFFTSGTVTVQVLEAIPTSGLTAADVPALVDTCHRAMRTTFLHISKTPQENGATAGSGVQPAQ
Assay: LPAAT-β cell-free assay
Assay type: biochemical
Conditions: Sf9 cell membrane overexpressing recombinant LPAAT-β
Text: For the construction of Baculovirus expression vectors, the full-length human LPAAT-β cDNA was amplified by PCR from the DNA template pCE9.LPAAT-β (West et al., DNA Cell Bid. 16.691-701 (1997)) using the primers 5′-[…] […] […]-3′ (olpb1F; SEQ ID NO:1) and 5′-[…] […] […]-3′ (olpb1R; SEQ ID NO:2). The ˜870 bp fragment generated was reamplified by PCR using the primers 5′ […] […] ATC-3′ (olpb2F; SEQ ID NO:3) and 5′-[…] […] […]-3′ (olpb1R; SEQ ID NO:2). The ˜890 bp fragment generated was then cleaved with Sal I and Xba I for insertion into pFastBac™ HTc vector (Life Technologies, Gaithersberg, M.d.) between the Sal I and Xba I sites for the generation of the plasmid pFB.LPAAT-β. […]
LPAAT-β catalyzes the transfer of an acyl group from a donor such as acyl-CoA to LPA. […] The absorbance at 405 nm, measured using a spectrophotometer plate reader, is proportional to the activity of LPAAT-2 in the sample. […]

## Nc1nc(Nc2ccc(C(F)(F)F)cc2)cc(-c2cccc(Cl)c2)n1 [Example 107, 6-(3-Chloro-phenyl)-N*4*-(4-trifuoromethyl-phenyl)-pyrimidine-2,4-diamine]
  IC50: 0.31 µM
